Test results published in US6303366A, “Biodegradation of the gasoline oxygenates” (Envirogen, Inc., priority 1999, dated 2001).

Tested on: ENV421
Test: Degradation of TAME by propane-oxidizing bacteria
Type: cell-based
Settings: 7.8 mg/L TAME, room temperature

CCC(C)(C)OC [TAME, tert-amyl methyl ether]
TAME Remaining after 24 hr incubation, Average (grown on 1-Propanol): 0 ppm
TAME Remaining after 24 hr incubation, Sample 1 (grown on 1-Propanol): 0 ppm
TAME Remaining after 24 hr incubation, Sample 2 (grown on 1-Propanol): 0 ppm
TAME Remaining after 24 hr incubation, Sample 3 (grown on 1-Propanol): 0 ppm
TAME Remaining after 24 hr incubation, Average (grown on Ethanol): 4.1 ppm
TAME Remaining after 24 hr incubation, Sample 1 (grown on Ethanol): 4.3 ppm
TAME Remaining after 24 hr incubation, Sample 2 (grown on Ethanol): 4.0 ppm
TAME Remaining after 24 hr incubation, Sample 3 (grown on Ethanol): 3.9 ppm
TAME Remaining after 24 hr incubation, Average (grown on Propane): 0 ppm
TAME Remaining after 24 hr incubation, Sample 1 (grown on Propane): 0 ppm
TAME Remaining after 24 hr incubation, Sample 2 (grown on Propane): 0 ppm
TAME Remaining after 24 hr incubation, Sample 3 (grown on Propane): 0 ppm
